Drawing on PubChem BioAssay AID328 (DTP/NCI, 2004), this text covers survivor count and T/C for 21 molecules.

The list does not hold the whole screen: it gathers tests that were run many times, whatever their T/C, doses with no T/C, and many T/C values between a quarter and a half above the control. Other doses and runs of a compound stand elsewhere. T/C: endpoint of the treated group in % of that of the vehicle group. Some entries give survivors of the animals treated and no T/C: the source files T/C as zero there, which appears to mark a toxic dose or a test without result, not a measured value. Some doses without a T/C left all or most animals alive at the check, yet need not have been tolerated: the source hardly ever lists a survival T/C far under the control, and the zero likely stands for such cases as well. Counts of survivors are from the toxicity check (mostly the fifth day) where no day follows; animals may have died later. Schedule codes are those of the source, read here as Q, the interval in days (D) or hours (H), X, the number of doses. Some entries hold several experiments; the values are given in rising order. Where survival is the endpoint, the PubChem record calls one and a half times the control and up active, and a quarter to a half above the control has no call in these data; cut-offs in other NCI protocols can differ. Some T/C values are followed by the survivors on the day toxicity was checked, most often the fifth; without a count, all were alive then.

This test deals with BDF1 mice, P388 leukemia ip, median survival T/C. The test is described as follows: NCI In Vivo Anticancer Drug Screen. Data for tumor model P388 Leukemia (intraperitoneal) in B6D2F1 (BDF1) mice. The following applies: T/C endpoint: median survival time, higher T/C = longer survival. Summed up: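 T/C = treated-group survival ÷ vehicle-control survival; tumour transplanted into mice before dosing.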

Where [1] appears, read: dose: 400.0 mg/kg/injection, schedule: Q01DX009 (ip), vehicle: saline with Tween-80.
Where [2] appears, read: dose: 50.0 mg/kg/injection, schedule: Q01DX009 (ip), vehicle: saline with Tween-80.
[3] abbreviates: dose: 200.0 mg/kg/injection, schedule: Q01DX009 (ip), vehicle: saline with Tween-80.
[4] abbreviates: dose: 100.0 mg/kg/injection, schedule: Q01DX009 (ip), vehicle: saline with Tween-80.
Where [5] appears, read: dose: 400.0 mg/kg/injection, schedule: Q04DX003 (ip), vehicle: saline.
Setting [6] is: dose: 25.0 mg/kg/injection, schedule: Q01DX009 (ip), vehicle: saline.
Setting [7] is: dose: 100.0 mg/kg/injection, schedule: Q04DX003 (ip), vehicle: saline.
Where [8] appears, read: dose: 200.0 mg/kg/injection, schedule: Q04DX003 (ip), vehicle: saline.
Where [9] appears, read: dose: 12.5 mg/kg/injection, schedule: Q01DX009 (ip), vehicle: saline with Tween-80.
The mark [10] stands for this setting: dose: 25.0 mg/kg/injection, schedule: Q01DX009 (ip), vehicle: saline with Tween-80.
[11] abbreviates: dose: 400.0 mg/kg/injection, schedule: Q04DX003 (ip), vehicle: saline with Tween-80.
Where [12] appears, read: dose: 200.0 mg/kg/injection, schedule: Q01DX009 (ip), vehicle: Klucel (hydroxypropylcellulose) (HPC).

As for `CCOC(=O)C(Cc1ccc(OC)c(OC)c1)C(Cc1ccc(OC)c(OC)c1)C(=O)OCC` (stereo unspecified), the survivor count under setting [1] is on record as 5 of 6.
Take `CCC(C)C(=O)O[C@H]1C(=O)O[C@@H]2C[C@H]3C(C)=CC(=O)[C@@H](O)[C@]3(C)[C@H]3[C@@H](O)[C@H](O)[C@@]4(C)OC[C@]32[C@@H]14` (stereo partly specified): the T/C is 134 % of control (dose: 0.02 mg/kg/injection, schedule: Q01DX009 (ip), vehicle: saline + alcohol); 134 % of control (dose: 0.05 mg/kg/injection, schedule: Q01DX009 (ip), vehicle: saline + alcohol); 144 % of control (dose: 0.1 mg/kg/injection, schedule: Q01DX009 (ip), vehicle: saline + alcohol); 140 % of control (dose: 0.12 mg/kg/injection, schedule: Q01DX009 (ip), vehicle: saline + alcohol); 149 % of control (dose: 0.19 mg/kg/injection, schedule: Q01DX009 (ip), vehicle: saline + alcohol); 132 % of control (dose: 0.25 mg/kg/injection, schedule: Q01DX009 (ip), vehicle: saline + alcohol). Further, the T/C (dose: 0.38 mg/kg/injection, schedule: Q01DX009 (ip), vehicle: saline + alcohol) is 141 % of control and the T/C (dose: 0.5 mg/kg/injection, schedule: Q01DX009 (ip), vehicle: saline + alcohol) was 132 % of control. Moreover, the survivor count (dose: 6.0 mg/kg/injection, schedule: Q01DX009 (ip), vehicle: saline + alcohol) was 1 of 6.
Regarding `Cc1nc(Cl)c(C(N)=O)nc1C`, the survivor count reads like this: under setting [2], 6 of 6; under setting [3], 5 of 6; under setting [1], 3 of 6.
As for `COc1cc2c(cc1O)C(=O)CCCC2`, the T/C under setting [4] was 135 % of control.
With `Cc1cc([N+](=O)[O-])cc([N+](=O)[O-])c1OC(=O)c1ccc(N=C(N)N)cc1`, the T/C runs as follows: (dose: 50.0 mg/kg/injection, schedule: Q01DX009 (ip), vehicle: saline) 125 % of control; (dose: 100.0 mg/kg/injection, schedule: Q01DX009 (ip), vehicle: saline) 140 % of control. Besides, the survivor count is 3 of 6 (dose: 200.0 mg/kg/injection, schedule: Q01DX009 (ip), vehicle: saline) and 2 of 6 under setting [5].
Turning to `COc1ccc(CC[N+]2=Cc3cc(OC)c(OC)cc3CC2)cc1OC`, the T/C under setting [6] was 127 % of control. Moreover, the survivor count is recorded as 6 of 6 under setting [7], 3 of 6 under setting [8] and 1 of 6 under setting [5].
As to `O=c1cc(-c2ccc(OCc3ccccc3)c(-c3c(OCc4ccccc4)cc(OCc4ccccc4)c4c(=O)cc(-c5ccc(OCc6ccccc6)cc5)oc34)c2)oc2cc(OCc3ccccc3)cc(OCc3ccccc3)c12`, the survivor count is, setting by setting: (dose: 200.0 mg/kg/injection, schedule: Q01DX001 (ip), vehicle: saline with Tween-80) 6 of 6; (dose: 400.0 mg/kg/injection, schedule: Q01DX001 (ip), vehicle: saline with Tween-80) 6 of 6.
For `CCc1c(-c2ccccc2)[nH]c2ccccc12`, the survivor count under setting [1] is listed as 0 of 6.
Turning to `CCCCCCCCCCCCS(=O)(=O)O`, the T/C was 136 % of control under setting [9] and 127 % of control under setting [10]. Also, the survivor count runs as follows: under setting [2], 3 of 6 and 6 of 6; under setting [4], 0 of 6; under setting [3], 0 of 6.
Take `CCOC(=O)C(NC=O)C(=O)OCC`: the survivor count under setting [6] is listed as 6 of 6.
As to `O=C(Cn1ccc(=O)[nH]c1=O)c1ccc(Cl)s1`, the T/C under setting [2] is 132 % of control.
Turning to `CC1(C)C2CCC([CH2][Hg][Cl])C1C2` (stereo unspecified), the T/C is, setting by setting: (dose: 6.25 mg/kg/injection, schedule: Q01DX009 (ip), vehicle: saline with Tween-80) 125 % of control [5 of 6 alive]; under setting [9], 130 % of control.
Take `CC(C)CCCc1c[nH]c(=O)[nH]c1=O`: the survivor count was 6 of 6 (dose: 100.0 mg/kg/injection, schedule: Q04DX003 (ip), vehicle: Klucel (hydroxypropylcellulose) (HPC)); 6 of 6 (dose: 200.0 mg/kg/injection, schedule: Q04DX003 (ip), vehicle: Klucel (hydroxypropylcellulose) (HPC)); 6 of 6 (dose: 400.0 mg/kg/injection, schedule: Q04DX003 (ip), vehicle: Klucel (hydroxypropylcellulose) (HPC)).
`Nc1cc(N)nc(S(=O)O)n1`: the T/C was 127 % of control (dose: 35.0 mg/kg/injection, schedule: Q01DX009 (ip), vehicle: Klucel (hydroxypropylcellulose) (HPC)); 127 and 130 % of control (dose: 50.0 mg/kg/injection, schedule: Q01DX009 (ip), vehicle: Klucel (hydroxypropylcellulose) (HPC)); 133 % of control (dose: 75.0 mg/kg/injection, schedule: Q01DX009 (ip), vehicle: Klucel (hydroxypropylcellulose) (HPC)).
Turning to `C=Cn1ccnc1C.C=Cn1ccnc1C.CC(=O)CC(C)=O.CC(=O)CC(C)=O.[Co]`, the survivor count is reported as 3 of 6 (dose: 100.0 mg/kg/injection, schedule: Q04DX003 (ip), vehicle: saline with Tween-80); 2 of 6 under setting [7]; 0 of 6 (dose: 200.0 mg/kg/injection, schedule: Q04DX003 (ip), vehicle: saline with Tween-80); 0 of 6 under setting [11].
Turning to `NCCNc1ccc(NCCN)c2c1C(=O)c1ccccc1C2=O`, the T/C (dose: 12.5 mg/kg/injection, schedule: Q01DX009 (ip), vehicle: other) was 148 % of control. Besides, the survivor count reads like this: (dose: 25.0 mg/kg/injection, schedule: Q01DX009 (ip), vehicle: other) 6 of 6; (dose: 50.0 mg/kg/injection, schedule: Q01DX009 (ip), vehicle: other) 0 of 6; (dose: 100.0 mg/kg/injection, schedule: Q01DX009 (ip), vehicle: other) 0 of 6.
As to `CC1(C)O[Se](=O)OC1(C)C`, the survivor count is 1 of 6 (dose: 12.5 mg/kg/injection, schedule: Q04DX003 (ip), vehicle: saline) and 0 of 6 (dose: 25.0 mg/kg/injection, schedule: Q04DX003 (ip), vehicle: saline).
For `O=C1N(Br)C(=O)C(c2ccc(Cl)cc2)(c2ccc(Cl)cc2)N1Br`, the T/C reads like this: under setting [10], 131 % of control; (dose: 100.0 mg/kg/injection, schedule: Q01DX009 (ip), vehicle: Klucel (hydroxypropylcellulose) (HPC)) 141 % of control; (dose: 130.0 mg/kg/injection, schedule: Q01DX003 (ip), vehicle: Klucel (hydroxypropylcellulose) (HPC)) 136 % of control; under setting [12], 141 % of control; under setting [8], 125 % of control. For the same molecule, the survivor count was 3 of 6 under setting [12]; 3 of 6 (dose: 300.0 mg/kg/injection, schedule: Q01DX003 (ip), vehicle: Klucel (hydroxypropylcellulose) (HPC)); 0 of 6 (dose: 300.0 mg/kg/injection, schedule: Q01DX009 (ip), vehicle: Klucel (hydroxypropylcellulose) (HPC)); 6 of 6 (dose: 300.0 mg/kg/injection, schedule: Q04DX003 (ip), vehicle: Klucel (hydroxypropylcellulose) (HPC)); 0 of 6 (dose: 400.0 mg/kg/injection, schedule: Q01DX009 (ip), vehicle: Klucel (hydroxypropylcellulose) (HPC)); 4 of 6 (dose: 400.0 mg/kg/injection, schedule: Q04DX003 (ip), vehicle: saline sonified).
For the molecule `CCOCCOCCOc1nc(F)c(Cl)cc1Cl`, under setting [11], the T/C was 129 % of control.
Take `CCCCCCN(CCCCCC)P(=O)(N1CC1)N1CC1`: for the setting “dose: 50.0 mg/kg/injection, schedule: Q04DX003 (ip), vehicle: saline with Tween-80”, the T/C is 127 % of control. Besides, the survivor count (dose: 75.0 mg/kg/injection, schedule: Q04DX003 (ip), vehicle: saline with Tween-80) was 6 of 6.
On to `N#CCCN(C(=S)Nc1cccc(C(F)(F)F)c1)C1CCCCC1`, for which the T/C under setting [3] was 129 % of control; the T/C under setting [1] is 126 [5 of 6 alive] and 137 % of control.
